Test results as given in patent US10106757B2, “Ionic liquid, lubricant, and magnetic recording medium” (DEXERIALS CORPORATION, priority 2016, dated 2018).

Key:
[1] = Disk durability test (CSS durability); conditions: 25° C., 60% RH; for CSS durability after heating: after heating test 3 minutes at 200° C.; for CSS durability: number of CSS until coefficient of friction greater than 1.0
[2] = Tape durability test: coefficient of friction after shuttle run of 100 times; conditions: for Coefficient of friction after 100 runs after heating test: after heating 10 minutes at 100° C.
[3] = Tape durability test: still durability; conditions: for Still durability after heating test: after heating 10 minutes at 100° C.

Molecule	CSS durability after heating [1]	CSS durability [1]	Coefficient of friction after 100 runs after heating test ([2]; 40° C., 90% RH)	Coefficient of friction after 100 runs after heating test ([2]; −5° C.)	Still durability ([3]; 40° C., 30% RH)	Still durability after heating test ([3]; 40° C., 30% RH)	Still durability ([3]; −5° C.)	Still durability after heating test ([3]; −5° C.)	Coefficient of friction after 100 runs ([2]; 40° C., 90% RH)	Coefficient of friction after 100 runs ([2]; −5° C.)	CSS durability ([1]; ammonium salt)
CCCCCCCCCCCCCCCCCC[n+]1ccn(CCCC)c1.O=S1(=O)[N-]S(=O)(=O)C(F)(F)C(F)(F)C1(F)F [Comp. Ex. 2A, hexafluorocyclopropane-1,3-bis(sulfonyl)imide-1-butyl-3-n-octadecylimidazolium, reference compound]	>50,000 times	>50,000 times	0.3	0.3	>60 min	>60 min	>60 min	>60 min			
CCCCCCCCCCCCn1cc[n+](CCCCCCCCCCCC)c1CCCCCCCCCCC.O=S(=O)([N-]S(=O)(=O)C(F)(F)C(F)(F)C(F)(F)C(F)(F)F)C(F)(F)C(F)(F)C(F)(F)C(F)(F)F [Ex. 2A, bis(nonafluorobutanesulfonyl)imide-1,3-didodecyl-2-undecylimidazolium]	>50,000 times	>50,000 times	0.23	0.22	>60 min	>60 min	>60 min	>60 min	0.22	0.21	
CCCCCCCCCCCCCCCCCCn1cc[n+](CCCCCCCCCCCCCCCCCC)c1CCCCCCCCCCCCCCCCC.O=S(=O)([N-]S(=O)(=O)C(F)(F)C(F)(F)C(F)(F)C(F)(F)F)C(F)(F)C(F)(F)C(F)(F)C(F)(F)F [Ex. 4A, bis(nonafluorobutanesulfonyl)imide-1,3-dioctadecyl-2-heptadecylimidazolium]	>50,000 times	>50,000 times	0.19	0.19	>60 min	>60 min	>60 min	>60 min	0.19	0.18	
nonafluorobutanesulfonic acid-1,3-didodecyl-2-undecylimidazolium [Ex. 1A]	>50,000 times	>50,000 times	0.22	0.21	>60 min	>60 min	>60 min	>60 min	0.21	0.20	
nonafluorobutanesulfonic acid-1,3-dioctadecyl-2-heptadecylimidazolium [Ex. 3A]	>50,000 times	>50,000 times	0.18	0.18	>60 min	>60 min	>60 min	>60 min	0.18	0.17	
nonafluorobutanesulfonic acid-1-octadecylimidazolium [Comp. Ex. 1A, reference compound]	>50,000 times	>50,000 times	0.2	0.2	>60 min	>60 min	>60 min	>60 min			
nonafluorobutanesulfonic acid-2-heptadecylimidazole salt [Comp. Ex. 3A, reference compound]	>50,000 times	>50,000 times	0.2	0.2	>60 min	>60 min	>60 min	>60 min	0.20	0.18	
pentadecafluorooctanoic acid octadecyl ammonium salt [Comp. Ex. 4A, reference compound]	891 times		0.5	0.5	>60 min	16 min	>60 min	12 min	0.25	0.21	>50,000 times
pentadecafluorooctanoic acid octadecyl ammonium salt [pentadecafluorooctanoic acid octadecyl ammonium salt]	891 times										greater than 50,000 times
